# Some of the results follow.
# Amino acid sequences for entries named in this document (tags omitted).
# UniProt Q0JBA9, entry or part of it: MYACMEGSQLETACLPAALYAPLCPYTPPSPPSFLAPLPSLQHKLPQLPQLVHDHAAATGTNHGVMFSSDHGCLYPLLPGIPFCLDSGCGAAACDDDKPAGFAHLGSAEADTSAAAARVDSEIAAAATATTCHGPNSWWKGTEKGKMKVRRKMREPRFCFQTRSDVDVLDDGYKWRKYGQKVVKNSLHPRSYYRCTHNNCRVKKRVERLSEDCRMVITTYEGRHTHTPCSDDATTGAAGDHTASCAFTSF
# Target: OsWRKY34 (Oryza sativa, UniProt Q0JBA9 1-250)
# Assay: protein-binding microarray (RPBM); PBS, 2% BSA, 51.3 ng/ul salmon testes DNA, 50 uM zinc acetate, 200 nM TF, 25 C, 1 h; high values mean tight binding
# Conditions: protein: recombinant; tags: N-terminal polyhistidine and DsRed monomer fusion (pET32a); label: CyDye5-dUTP incorporated in the synthesized complementary strand; 3' TTTTT single-stranded linker to array surface; dsDNA, one strand shown
# How it was run: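 Transcription factors were each fused at the N-terminus to a polyhistidine tag plus DsRed and expressed in E. coli BL21-CodonPlus before Ni–NTA purification. Binding to a double-stranded custom Agilent array was carried out with 200 nM protein at 25 °C for 1 h in PBS, 2% BSA, salmon testes DNA and 50 µM zinc acetate. The binding signal is per-feature fluorescence intensity, in arbitrary units, on an Axon 4000B scanner.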
row,Sequence,binding signal
1,ACGCACAGCTTATCCGATTCCATCCATTCCTCAAGCTCTCCGGAGTCACCTAGTGCAG,10100 fluorescence intensity (a.u.)
2,ATAGCCATCTCACTTCTCTCTGGCTCTGTCCTTCCTGCCACGGAGTCACCTAGTGCAG,8220 fluorescence intensity (a.u.)
3,GGTTTTGTACTTATTTTCTATAAATTCGGCTAGTTTAGTACGGAGTCACCTAGTGCAG,9460 fluorescence intensity (a.u.)
4,TATTTTTTGCATTTTGCTCCCTGATTTGAACTGTATTTCTCGGAGTCACCTAGTGCAG,8660 fluorescence intensity (a.u.)
5,TAAGGGATGGGATGGTTGGCTTGGATCGAGTATATTTCTTCGGAGTCACCTAGTGCAG,18900 fluorescence intensity (a.u.)
6,CACCACCACCCCAGTACAAACACCTTGCGTCCTCTCAACTCGGAGTCACCTAGTGCAG,11200 fluorescence intensity (a.u.)
7,CCTCTTATTCTACTTGTAGCTTTTTTTTTTCTTTCAAATTCGGAGTCACCTAGTGCAG,11600 fluorescence intensity (a.u.)
8,AAACGCGCGCGCCATTTTTCTTCTTCCCGCGATAAACCGACGGAGTCACCTAGTGCAG,9220 fluorescence intensity (a.u.)
9,GTGGTTTCATCATGTAAGGGATATCCCCTCGTTTCTTGCACGGAGTCACCTAGTGCAG,8280 fluorescence intensity (a.u.)
10,AGCTCTCGCCCGCGTCGTCCGTTTCCGCGCTTTCCCCTGCCGGAGTCACCTAGTGCAG,11500 fluorescence intensity (a.u.)
11,CCAAGTGCAGCGCGTCCTCTTCCACTTCCAACATCTACTACGGAGTCACCTAGTGCAG,8320 fluorescence intensity (a.u.)
12,CGCCTTCAATGCATCATCTTCGCCTCTCGACTCAATCTGCCGGAGTCACCTAGTGCAG,8640 fluorescence intensity (a.u.)
13,TCTTTCCTGACTTTTAGATCTATTCATCCAACGGCTTATACGGAGTCACCTAGTGCAG,9750 fluorescence intensity (a.u.)
14,TGTGTGCTATTGTTTCGCCTATCCTTACGCGTATAAACCACGGAGTCACCTAGTGCAG,8530 fluorescence intensity (a.u.)
15,GAGAGAGGGGAGGAAGAGAAACGATGGTGGAGGGGAAAGACGGAGTCACCTAGTGCAG,8720 fluorescence intensity (a.u.)
16,TTCTCTATCCTTTTCTTTCATCTCTTTGGCTGATCTGTGACGGAGTCACCTAGTGCAG,12000 fluorescence intensity (a.u.)
17,ACAAAACTGAACTCGCTACCACATCAATATACCACCTAGCCGGAGTCACCTAGTGCAG,8850 fluorescence intensity (a.u.)
18,GTGTTTGTTTTGTCATTTGTAGTGAGCTCGCGTGATGAGCCGGAGTCACCTAGTGCAG,8880 fluorescence intensity (a.u.)
19,TTTATTGGAATACTCTCTGCTTCTAATCATTTCGCTGAGCCGGAGTCACCTAGTGCAG,8090 fluorescence intensity (a.u.)
20,CGGCTGGCATCCATCCATCCATTCCACCGTAGTCGTACCCCGGAGTCACCTAGTGCAG,8670 fluorescence intensity (a.u.)
21,TGGCCGTCCGTCATCTCCGCCGCCTCCGCCTCCGCCGCCGCGGAGTCACCTAGTGCAG,9240 fluorescence intensity (a.u.)

# A second format for part of the listing above.
row	Sequence	binding signal
1	ACGCACAGCTTATCCGATTCCATCCATTCCTCAAGCTCTCCGGAGTCACCTAGTGCAG	10100 fluorescence intensity (a.u.)
5	TAAGGGATGGGATGGTTGGCTTGGATCGAGTATATTTCTTCGGAGTCACCTAGTGCAG	18900 fluorescence intensity (a.u.)

# More records.

row,Sequence,binding signal
1,AGCTGCAATCTCTTTCTGGATCATCAGTGCAAGACATACTCGGAGTCACCTAGTGCAG,9450 fluorescence intensity (a.u.)
2,CCATCCAAGCTTGACCGGGAACCAAACACACCCTTACAAACGGAGTCACCTAGTGCAG,8380 fluorescence intensity (a.u.)
3,CACCACTCGCTTCCCTTTTTCCCAGCTGCGTTTTTTTTAACGGAGTCACCTAGTGCAG,8610 fluorescence intensity (a.u.)
4,TTTTGCTACAGTGCTCGGATATATCTGGGACGTCCATTTTCGGAGTCACCTAGTGCAG,10200 fluorescence intensity (a.u.)
5,ACCCCGGCCACTCGTAAACCCCGAGAAACCTTGGCGGCTTCGGAGTCACCTAGTGCAG,8130 fluorescence intensity (a.u.)
6,TTGTACGATCGATTACCAGTAGTAGCTCACTCCTAATCTCCGGAGTCACCTAGTGCAG,9280 fluorescence intensity (a.u.)
7,GAATTCTTGCAAACTCGTTTCATATGTTTTGTTTTGCTTTCGGAGTCACCTAGTGCAG,11300 fluorescence intensity (a.u.)
8,CCCTTTTTTATACCGTGGCATATCTCTCTGCATTTAATCTCGGAGTCACCTAGTGCAG,13700 fluorescence intensity (a.u.)
9,GTCTTCCCCTAGCGCCGCCGCCTCCACCTCCGCCGCCGTCCGGAGTCACCTAGTGCAG,8700 fluorescence intensity (a.u.)
10,GTCATCCTCTTTGTGTGAGCGGCCACCATCGGCGCATCGTCGGAGTCACCTAGTGCAG,8350 fluorescence intensity (a.u.)
11,ACGCTTTTTTTTATAGTTCATCCATGCAGATGGAGTACTCCGGAGTCACCTAGTGCAG,14600 fluorescence intensity (a.u.)
12,GGAGATTTCCCCGCCGTTGACTGGTAACTACCTACCTATCCGGAGTCACCTAGTGCAG,11200 fluorescence intensity (a.u.)
13,ACAGCCGTGGAGGGGAGGAGAATCGGCCGCCGTTGACCACCGGAGTCACCTAGTGCAG,15400 fluorescence intensity (a.u.)
14,ACGCCTCATCTCCAGTCCACGGCTCAACGTCCACGCACACCGGAGTCACCTAGTGCAG,10500 fluorescence intensity (a.u.)
15,TAGCTAGCTGAATTTGCAAGCACGTACTACATTGTTAGATCGGAGTCACCTAGTGCAG,8340 fluorescence intensity (a.u.)
16,CTTCGTCTCTCGCCTTGTACATTTCTAATTGTTATATGTTCGGAGTCACCTAGTGCAG,8500 fluorescence intensity (a.u.)
17,TCCTCTGCAGTCACTTTACCGTGCATTTATCACATGTCAGCGGAGTCACCTAGTGCAG,9610 fluorescence intensity (a.u.)
18,TATCCTTTGACTTTGAGTGACTGACATATAGACCCATGCTCGGAGTCACCTAGTGCAG,9980 fluorescence intensity (a.u.)
19,GGCCCATATCGCGCTCCTCGTCTTGCCGTCCAAGACGTCTCGGAGTCACCTAGTGCAG,12400 fluorescence intensity (a.u.)
20,GAGTACTGCTGCTCCTGCTTGTGTTGCCATACATGTTGACCGGAGTCACCTAGTGCAG,10800 fluorescence intensity (a.u.)
21,CAAGATTAGCACTCACTGGTTCTTCTTCCTTGTTTATTTGCGGAGTCACCTAGTGCAG,9810 fluorescence intensity (a.u.)

# Given with bars between the fields: entries from further up
row | Sequence | binding signal
9 | GTCTTCCCCTAGCGCCGCCGCCTCCACCTCCGCCGCCGTCCGGAGTCACCTAGTGCAG | 8700 fluorescence intensity (a.u.)
19 | GGCCCATATCGCGCTCCTCGTCTTGCCGTCCAAGACGTCTCGGAGTCACCTAGTGCAG | 12400 fluorescence intensity (a.u.)

# Source: PMC7819943, “Rice protein-binding microarrays: a tool to detect cis-acting elements near promoter regions in rice”
